Reference: PubChem BioAssay AID504444 (National Center for Advancing Translational Sciences (NCATS), 2011)
“And” between values parts separate entries of the source, which are not always exact repeats. Equal entries are not always repeated. In all, about 360,000 compounds went through this assay and about 7,500 (2.1%) were called active. Inconclusive results, whose numbers are uncertain, are shown with a selection of clear calls. Calls follow the shape of the dose curve; as a rule, active = well fitted inhibition curve with a large enough effect; inconclusive = small, poorly fitted or top-dose-only effect, or effect the other way; inactive = flat fitted curve, though single readings scatter. Potencies of inconclusive entries are doubtful fits and often do not repeat.

Assay: Nrf2 qHTS screen for inhibitors; also: nearly all actives have a fitted effect of over 60% in size
Conditions: A549 ARE-Fluc reporter, luciferase luminescence, 18-24 h; activity change, negative = inhibition: at 46 µM (top of the series)
Procedure, shortened: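 Cells were seeded and rested 2 h, then exposed to compounds for 18-24 h. CellTiter-Fluor was read first as a viability measure. BugLite was added 15 min before the final luminescent read of ARE-luciferase activity in A549 cells.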
% is scaled to controls: 0 for no effect and ±100 for the full control effect; potency is read from the fitted curve at half-maximal effect.

| SMILES | Potency | activity change, negative = inhibition |
| --- | --- | --- |
| Cc1ccc(S(=O)(=O)NCc2ccncc2)cc1C | active: 2.31 µM | – |
| CCCN(Cc1ccccc1)C(=S)Nc1cccc(C(F)(F)F)c1 | active: 20.6 µM | – |
| COc1ccc(C(C(=O)NC2CCCCC2)N(Cc2ccco2)C(=O)CNC(=O)c2ccco2)cc1 (stereo unspecified) | inconclusive: 1.3 µM [falling, partial curve, poor fit] | – |
| COc1ccc(CCNC(=O)c2ccc(Cl)c(S(=O)(=O)N(C)c3ccccc3)c2)cc1 | active: 18.4 µM | – |
| COC(=O)c1ccc2c(c1)NC(=O)C(N1CCOCC1)S2 (stereo unspecified) | inconclusive: 4.11 µM [activator, partial curve] | – |
| O=C(NCCN1CCNC1=O)C1CCC(=O)N(CCc2ccc(Cl)cc2)C1 (stereo unspecified) | inconclusive: 0.461 µM [activator, full curve, poor fit] | – |
| S=c1[nH]cnc2sc(Nc3ccccc3)nc12 | inconclusive: 25.9 µM [activator, single point] | – |
| Cc1cc(CNC(=O)c2cccc(OC3CCN(S(=O)(=O)N(C)C)CC3)c2)on1 | inconclusive: 0.731 µM [activator, full curve] | – |
| COc1ccc(Cl)cc1NC(=O)c1cc2c(=O)n3ccccc3nc2s1 | active: 1.64 µM | – |
| CC(=O)Nc1ccc2nc(-c3ccc(Br)o3)[nH]c2c1 | inconclusive: 1.16 µM [activator, full curve] | – |
| Cc1cc2nc3n(c2cc1C)CC1CC(C(=O)NCC2CC2)N(C)C31 (stereo unspecified) | – | inactive: -0.168% |
| COc1ccc(CN=C2NC(=O)CC(C(=O)Nc3ccc([N+](=O)[O-])cc3C)S2)cc1 (stereo unspecified) | inconclusive: 29.1 µM [falling, single point] | – |
| O=C(C1CCC(CNS(=O)(=O)c2cccc3nsnc23)CC1)N1CCN(c2ccccn2)CC1 (stereo unspecified) | active: 20.6 µM | – |
| CC1(C)Cc2c(sc(NC(=O)c3ccc(C(=O)c4ccccc4)cc3)c2C(N)=O)C(C)(C)N1 | – | inactive: -7.86% |
| COc1ccc(-c2cn(-c3ccc(C)cc3)c(=O)n2CC(=O)Nc2ccc(OC)cc2OC)cc1 | inconclusive: 25.9 µM [activator, single point] | – |
| CC(C)NC(=S)N/N=C1\CCCCc2ccccc21 | – | inactive: 9.34% |
| CCOC(=O)CC(NC(=O)CCc1c(C)nc2c(-c3ccccc3)c(C)nn2c1C)c1ccc(OC(C)C)cc1 (stereo unspecified) | inconclusive: 11.6 µM [falling, partial curve] | – |
| O=C(Nc1ccc(Cl)cc1)Nc1ccccc1NS(=O)(=O)c1cccs1 | inconclusive: 13 µM [activator, partial curve, poor fit] | – |
| O=C1N/C(=C/c2ccsc2)C(=O)N1c1ccccc1 | inconclusive: 4.61 µM [activator, full curve, poor fit] | – |
| CC(C)(C)c1ccc(-c2nc(C#N)c(NCCCn3ccnc3)o2)cc1 | inconclusive: 29.1 µM [falling, single point] | – |
| OCCC1CN(Cc2nc(-c3ccccc3)cs2)CCN1Cc1ccc(F)cc1 (stereo unspecified) | – | inactive: 21% |

Entries of single compounds, looked up by structure. Order of values: Potency | activity change, negative = inhibition
Cc1ccc(S(=O)(=O)NCc2ccncc2)cc1C is listed with active: 2.31 µM | –
O=C(C1CCC(CNS(=O)(=O)c2cccc3nsnc23)CC1)N1CCN(c2ccccn2)CC1 (stereo unspecified) is listed with active: 20.6 µM | –

(next part)

| SMILES | Potency | activity change, negative = inhibition |
| --- | --- | --- |
| CN=c1scc(-c2ccc([N+](=O)[O-])cc2)n1/N=C/c1ccco1 | inconclusive: 0.259 µM [activator, full curve] | – |
| NNC(=O)CCc1ccc(S(=O)(=O)N2CCOCC2)cc1 | inconclusive: 7.31 µM [activator, partial curve] | – |
| Cc1ccccc1OCC(O)Cn1c2ccccc2c2ccccc21 (stereo unspecified) | inconclusive: 25.9 µM [falling, partial curve, poor fit] | – |
| Cc1ccc(/C=N/N2CCN(c3ccccc3)CC2)cc1 | inconclusive: 25.9 µM [activator, single point] | – |
| Clc1cccc(CON/C=N/c2ncnc3sccc23)c1 | active: 16.4 µM | – |
| CCOC(=O)C1(c2csc(N)n2)COC(=O)C1 (stereo unspecified) | inconclusive: 0.13 µM [falling, full curve, poor fit] | – |
| Cc1ccc(Nc2nc(NCc3ccco3)c3ccccc3n2)cc1 | inconclusive: 23.1 µM [falling, single point] | – |
| CNc1ncc(C(=O)c2ccccc2)s1 | inconclusive: 4.11 µM [activator, full curve, poor fit] | – |
| O=[N+]([O-])c1ccc(/C=N/n2c(COc3ccccc3)n[nH]c2=S)cc1 | inconclusive: 10.3 µM [falling, partial curve] | – |
| CC(C)C(=O)NC(=S)Nc1ccc(S(=O)(=O)Nc2ccccc2)cc1 | inconclusive: 13 µM [falling, single point] | – |
| CSc1ccc(N2C(=O)NC3(CCCCC3)C2=O)cc1 | inconclusive: 18.4 µM [activator, single point] | – |
| N=c1c2ccccc2nc2n1CCCCCCCCCCC2 | inconclusive: 18.4 µM [falling, partial curve, poor fit] | – |
| COc1ccc(NC(=O)c2sc3nc4c(cc3c2N)CN(Cc2ccccc2)CC4)c(OC)c1 | inconclusive: 20.6 µM [falling, single point] | – |
| CN(Cc1cccs1)C(=O)Cc1csc(-c2ccccc2)n1 | inconclusive: 20.6 µM [activator, single point] | – |
| COc1ccc(NC(=O)Cn2c(SCc3ccc(C)cc3)nc3cccnc32)cc1OC | inconclusive: 0.82 µM [falling, full curve, poor fit] | – |
| Cc1cc(NC(=O)CSc2nc3cc(C(=O)NCCCOC(C)C)ccc3c(=O)n2Cc2ccco2)no1 | inconclusive: 29.1 µM [falling, single point] | – |
| CCOC(=O)c1cc2c(s1)-c1c(C)cccc1OC2 | inconclusive: 13 µM [activator, partial curve, poor fit] | – |
| CCn1c(SCC(=O)c2ccc(O)c(O)c2)nnc1-c1ccccc1OC | inconclusive: 29.1 µM [activator, single point] | – |
| Cc1cc(C)c2nc(N3CCC(C(=O)NCCN4CCOCC4)CC3)sc2c1 | inconclusive: 29.1 µM [activator, single point] | – |
| CN(c1ccccc1)S(=O)(=O)c1ccc(NC(=O)c2nc(S(C)(=O)=O)ncc2Cl)cc1 | inconclusive: 23.1 µM [falling, single point] and inconclusive: 29.1 µM [falling, single point] | – |
